From publication doi:10.1101/2023.02.13.528351 come the findings set out here.

Chains of the proteins cited; added tags and fusions are not shown.
UniProt O14686: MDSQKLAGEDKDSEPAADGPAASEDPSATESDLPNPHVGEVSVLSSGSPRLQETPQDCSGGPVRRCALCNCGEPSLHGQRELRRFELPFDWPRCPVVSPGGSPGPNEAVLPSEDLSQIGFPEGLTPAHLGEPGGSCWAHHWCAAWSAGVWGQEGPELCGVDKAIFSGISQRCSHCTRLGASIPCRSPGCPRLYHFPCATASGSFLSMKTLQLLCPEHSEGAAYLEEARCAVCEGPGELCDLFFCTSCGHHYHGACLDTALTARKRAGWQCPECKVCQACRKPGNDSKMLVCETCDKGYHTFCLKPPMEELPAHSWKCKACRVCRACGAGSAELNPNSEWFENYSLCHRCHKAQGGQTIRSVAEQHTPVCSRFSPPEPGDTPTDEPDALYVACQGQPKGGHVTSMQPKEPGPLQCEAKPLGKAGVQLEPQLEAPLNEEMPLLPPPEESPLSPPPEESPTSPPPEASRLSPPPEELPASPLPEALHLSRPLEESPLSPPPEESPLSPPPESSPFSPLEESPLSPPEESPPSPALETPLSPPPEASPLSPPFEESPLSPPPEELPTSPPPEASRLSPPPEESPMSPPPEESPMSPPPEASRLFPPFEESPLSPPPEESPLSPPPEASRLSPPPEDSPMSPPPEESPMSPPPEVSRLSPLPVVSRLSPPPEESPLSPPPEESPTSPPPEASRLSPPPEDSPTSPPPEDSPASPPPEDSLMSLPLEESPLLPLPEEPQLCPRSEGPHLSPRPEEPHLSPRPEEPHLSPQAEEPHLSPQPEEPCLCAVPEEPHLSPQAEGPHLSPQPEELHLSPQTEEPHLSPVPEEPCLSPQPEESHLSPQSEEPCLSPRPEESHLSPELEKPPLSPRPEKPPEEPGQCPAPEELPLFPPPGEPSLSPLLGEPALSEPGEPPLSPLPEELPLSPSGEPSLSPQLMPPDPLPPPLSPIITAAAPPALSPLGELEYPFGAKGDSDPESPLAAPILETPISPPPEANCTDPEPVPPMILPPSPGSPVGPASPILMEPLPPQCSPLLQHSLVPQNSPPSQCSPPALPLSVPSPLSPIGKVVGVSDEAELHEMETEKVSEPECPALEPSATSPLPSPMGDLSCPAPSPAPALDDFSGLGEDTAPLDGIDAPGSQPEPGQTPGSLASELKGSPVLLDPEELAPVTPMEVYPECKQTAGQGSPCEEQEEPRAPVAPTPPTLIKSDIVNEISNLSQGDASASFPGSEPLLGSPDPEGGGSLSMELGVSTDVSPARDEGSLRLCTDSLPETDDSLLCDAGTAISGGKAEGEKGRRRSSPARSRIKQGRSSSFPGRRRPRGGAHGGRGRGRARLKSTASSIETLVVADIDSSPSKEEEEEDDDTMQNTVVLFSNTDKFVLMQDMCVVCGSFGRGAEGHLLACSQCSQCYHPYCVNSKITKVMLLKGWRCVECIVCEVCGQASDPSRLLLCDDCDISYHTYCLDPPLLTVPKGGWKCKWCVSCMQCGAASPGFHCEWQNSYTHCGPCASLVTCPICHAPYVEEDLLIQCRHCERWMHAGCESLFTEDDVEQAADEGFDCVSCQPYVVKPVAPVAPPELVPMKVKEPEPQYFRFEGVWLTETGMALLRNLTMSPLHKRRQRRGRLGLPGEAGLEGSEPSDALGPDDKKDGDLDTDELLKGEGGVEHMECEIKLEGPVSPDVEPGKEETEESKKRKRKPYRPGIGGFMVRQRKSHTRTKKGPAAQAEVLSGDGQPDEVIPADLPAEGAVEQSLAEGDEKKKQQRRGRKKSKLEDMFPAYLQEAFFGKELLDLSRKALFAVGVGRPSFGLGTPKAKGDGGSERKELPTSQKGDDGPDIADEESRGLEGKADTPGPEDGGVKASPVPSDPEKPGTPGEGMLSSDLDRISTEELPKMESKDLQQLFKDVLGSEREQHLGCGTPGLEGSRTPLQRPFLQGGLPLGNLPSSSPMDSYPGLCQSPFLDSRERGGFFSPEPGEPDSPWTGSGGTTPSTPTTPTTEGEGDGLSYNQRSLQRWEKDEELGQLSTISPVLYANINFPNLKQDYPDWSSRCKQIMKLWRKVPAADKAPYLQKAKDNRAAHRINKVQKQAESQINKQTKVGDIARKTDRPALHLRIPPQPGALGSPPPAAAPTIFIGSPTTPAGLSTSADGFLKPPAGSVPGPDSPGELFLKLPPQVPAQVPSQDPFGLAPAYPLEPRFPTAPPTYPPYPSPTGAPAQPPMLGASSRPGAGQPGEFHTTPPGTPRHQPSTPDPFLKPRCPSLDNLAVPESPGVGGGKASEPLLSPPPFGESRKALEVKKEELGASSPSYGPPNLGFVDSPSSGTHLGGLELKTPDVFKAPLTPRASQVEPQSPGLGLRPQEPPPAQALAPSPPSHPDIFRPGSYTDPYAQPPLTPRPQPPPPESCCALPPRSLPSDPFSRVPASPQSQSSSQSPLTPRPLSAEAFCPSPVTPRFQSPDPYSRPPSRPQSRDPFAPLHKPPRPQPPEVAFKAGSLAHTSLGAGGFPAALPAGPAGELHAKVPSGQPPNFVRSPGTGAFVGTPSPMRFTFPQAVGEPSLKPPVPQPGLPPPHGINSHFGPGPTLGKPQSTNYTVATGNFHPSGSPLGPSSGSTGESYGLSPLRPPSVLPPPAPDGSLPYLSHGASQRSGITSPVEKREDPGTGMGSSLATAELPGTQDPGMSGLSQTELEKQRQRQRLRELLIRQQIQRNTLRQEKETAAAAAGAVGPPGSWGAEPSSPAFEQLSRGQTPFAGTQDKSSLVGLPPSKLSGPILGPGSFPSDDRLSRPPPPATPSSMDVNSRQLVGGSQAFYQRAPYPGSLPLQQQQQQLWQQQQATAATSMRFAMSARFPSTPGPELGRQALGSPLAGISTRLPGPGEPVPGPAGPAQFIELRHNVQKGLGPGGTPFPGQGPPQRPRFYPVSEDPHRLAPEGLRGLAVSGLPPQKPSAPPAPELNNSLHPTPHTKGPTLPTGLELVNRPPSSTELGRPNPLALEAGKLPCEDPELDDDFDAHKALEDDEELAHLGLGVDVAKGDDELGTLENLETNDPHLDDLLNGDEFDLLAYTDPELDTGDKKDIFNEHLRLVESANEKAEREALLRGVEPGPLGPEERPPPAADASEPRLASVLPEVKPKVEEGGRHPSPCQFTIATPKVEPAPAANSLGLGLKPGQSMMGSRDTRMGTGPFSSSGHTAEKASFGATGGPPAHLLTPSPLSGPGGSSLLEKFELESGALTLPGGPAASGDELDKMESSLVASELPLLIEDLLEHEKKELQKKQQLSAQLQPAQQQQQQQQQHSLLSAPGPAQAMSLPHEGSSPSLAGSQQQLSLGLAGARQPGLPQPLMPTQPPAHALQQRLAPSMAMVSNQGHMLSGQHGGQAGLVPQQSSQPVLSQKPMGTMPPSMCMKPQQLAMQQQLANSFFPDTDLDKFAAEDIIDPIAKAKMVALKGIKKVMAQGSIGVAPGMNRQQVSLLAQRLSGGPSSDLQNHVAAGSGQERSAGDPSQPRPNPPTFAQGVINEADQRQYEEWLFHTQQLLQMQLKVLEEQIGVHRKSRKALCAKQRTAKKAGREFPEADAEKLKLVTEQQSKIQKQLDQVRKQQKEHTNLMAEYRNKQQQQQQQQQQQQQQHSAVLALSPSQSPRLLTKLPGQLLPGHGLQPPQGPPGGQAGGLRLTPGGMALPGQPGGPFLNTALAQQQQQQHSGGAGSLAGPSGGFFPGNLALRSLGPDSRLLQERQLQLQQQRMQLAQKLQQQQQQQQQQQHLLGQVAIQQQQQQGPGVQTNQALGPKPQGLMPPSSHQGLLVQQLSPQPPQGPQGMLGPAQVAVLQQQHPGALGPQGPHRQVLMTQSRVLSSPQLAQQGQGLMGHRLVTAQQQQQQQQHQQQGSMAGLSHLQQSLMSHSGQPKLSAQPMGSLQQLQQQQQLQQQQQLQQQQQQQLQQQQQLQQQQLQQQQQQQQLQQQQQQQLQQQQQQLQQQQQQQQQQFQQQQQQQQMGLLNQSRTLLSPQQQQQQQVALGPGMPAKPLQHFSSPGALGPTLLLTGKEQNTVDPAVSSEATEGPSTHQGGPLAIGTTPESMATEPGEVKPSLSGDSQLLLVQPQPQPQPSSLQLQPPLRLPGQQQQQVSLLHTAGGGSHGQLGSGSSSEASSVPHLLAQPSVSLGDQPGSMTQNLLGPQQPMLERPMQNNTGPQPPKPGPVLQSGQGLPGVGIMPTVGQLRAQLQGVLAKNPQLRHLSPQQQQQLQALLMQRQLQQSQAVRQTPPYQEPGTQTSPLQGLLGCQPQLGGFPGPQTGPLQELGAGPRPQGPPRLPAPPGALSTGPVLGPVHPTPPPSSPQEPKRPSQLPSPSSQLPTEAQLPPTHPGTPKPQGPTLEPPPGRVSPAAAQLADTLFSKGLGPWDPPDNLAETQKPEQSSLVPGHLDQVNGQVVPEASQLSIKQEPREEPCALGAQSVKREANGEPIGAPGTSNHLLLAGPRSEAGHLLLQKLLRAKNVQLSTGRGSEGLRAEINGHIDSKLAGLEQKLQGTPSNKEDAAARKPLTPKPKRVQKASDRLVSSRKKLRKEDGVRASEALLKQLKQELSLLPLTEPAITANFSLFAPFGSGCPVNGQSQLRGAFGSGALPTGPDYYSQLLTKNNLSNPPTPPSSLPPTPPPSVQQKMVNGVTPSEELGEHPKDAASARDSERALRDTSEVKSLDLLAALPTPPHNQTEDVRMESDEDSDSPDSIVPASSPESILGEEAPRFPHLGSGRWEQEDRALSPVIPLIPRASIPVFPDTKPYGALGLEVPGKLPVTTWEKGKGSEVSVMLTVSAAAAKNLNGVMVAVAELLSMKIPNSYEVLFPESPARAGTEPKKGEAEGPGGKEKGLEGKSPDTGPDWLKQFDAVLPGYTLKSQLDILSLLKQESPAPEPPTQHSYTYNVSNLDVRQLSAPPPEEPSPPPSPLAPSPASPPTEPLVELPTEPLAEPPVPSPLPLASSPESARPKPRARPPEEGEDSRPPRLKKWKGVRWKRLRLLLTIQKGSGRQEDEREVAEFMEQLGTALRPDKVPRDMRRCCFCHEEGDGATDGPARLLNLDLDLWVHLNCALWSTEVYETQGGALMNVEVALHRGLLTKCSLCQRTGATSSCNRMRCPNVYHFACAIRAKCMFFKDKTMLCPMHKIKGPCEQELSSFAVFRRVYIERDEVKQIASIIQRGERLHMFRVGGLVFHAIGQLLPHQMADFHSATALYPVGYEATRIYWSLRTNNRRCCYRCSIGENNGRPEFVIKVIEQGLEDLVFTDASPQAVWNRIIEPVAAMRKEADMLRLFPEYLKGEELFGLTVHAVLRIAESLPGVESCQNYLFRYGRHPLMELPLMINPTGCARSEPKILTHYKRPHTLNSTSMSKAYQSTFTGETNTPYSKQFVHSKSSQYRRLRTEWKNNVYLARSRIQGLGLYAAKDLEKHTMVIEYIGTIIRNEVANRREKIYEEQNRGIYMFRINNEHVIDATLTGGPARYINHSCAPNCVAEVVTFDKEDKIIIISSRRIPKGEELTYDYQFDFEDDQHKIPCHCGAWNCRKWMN

For this test, the target named is KMT2D (human (endogenous in OCI-Ly7 and SU-DHL4)) (UniProt O14686). The test is described as follows: co-IP.

Results are given in words; binding and its absence hold for the method and conditions named. In cells and extracts the contact can be indirect. Some binding calls cover weakened binding; strength is not graded here.

For the substance CREBBP (from UniProt Q92793 1-2442), the binding result is reported as “binds”.
